The other results are listed elsewhere or left out.

The chains behind the UniProt entries cited, without tags or fusion partners.
UniProt Q0JBA9, entry or part of it: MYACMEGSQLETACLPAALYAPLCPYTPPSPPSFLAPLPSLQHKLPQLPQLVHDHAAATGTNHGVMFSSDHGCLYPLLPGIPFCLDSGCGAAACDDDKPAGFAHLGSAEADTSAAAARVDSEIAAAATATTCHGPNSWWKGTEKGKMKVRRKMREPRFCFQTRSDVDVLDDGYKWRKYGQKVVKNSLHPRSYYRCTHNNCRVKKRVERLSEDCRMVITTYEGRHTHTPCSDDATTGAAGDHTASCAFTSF

The assay concerns the target OsWRKY34 (Oryza sativa, UniProt Q0JBA9 1-250). Put plainly: protein-binding microarray (RPBM); PBS, 2% BSA, 51.3 ng/ul salmon testes DNA, 50 uM zinc acetate, 200 nM TF, 25 C, 1 h; high values mean tight binding. The settings on record: protein: recombinant; tags: N-terminal polyhistidine and DsRed monomer fusion (pET32a); label: CyDye5-dUTP incorporated in the synthesized complementary strand; 3' TTTTT single-stranded linker to array surface; dsDNA, one strand shown. The method, boiled down: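 Transcription factors, each fused N-terminally to a polyhistidine tag and DsRed, were expressed in E. coli BL21-CodonPlus and purified on Ni–NTA. A custom Agilent array was made double-stranded by primer extension with Cy5-dUTP and blocked with 2% BSA. It was incubated with 200 nM protein in PBS, 2% BSA, salmon testes DNA and 50 µM zinc acetate at 25 °C for 1 h, then washed. The binding signal is per-feature fluorescence intensity (arbitrary units) read on an Axon 4000B scanner.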
Regarding “CACTCAATTCCTTTCTCATAGTTTCCATTTTCCTTGCATCCGGAGTCACCTAGTGCAG”, the binding signal was 8670 fluorescence intensity (a.u.). As for “ATTGCCTCGTTTTTCTCTATAGACTATCTCCATGTTAGTACGGAGTCACCTAGTGCAG”, the figure is 8830 fluorescence intensity (a.u.).

For the sequence “GCACAACCAAAGCCACATGCTAATCACACAAGCACAACCCCGGAGTCACCTAGTGCAG”, the binding signal is 8620 fluorescence intensity (a.u.).

On to “ACTGTACGTATAAATGATCCATCCTCTCCTCTTCTTCTTACGGAGTCACCTAGTGCAG”, for which the binding signal is 10000 fluorescence intensity (a.u.). With “TCTGCGCGCGCCGCTGCCATTCACACGCATCGAGTAAGCTCGGAGTCACCTAGTGCAG”, the binding signal is 9510 fluorescence intensity (a.u.). Next, “CTGTATTTTTTGGGAGTTTCTGACATCAATTTGCACGTTTCGGAGTCACCTAGTGCAG”: 8970 fluorescence intensity (a.u.). Next, “GTTATTAGTCATCTGTGCTTTGGAAATTTGATCGCGTTTTCGGAGTCACCTAGTGCAG”: 8840 fluorescence intensity (a.u.); “GGAGTAGTATTTGGTTGCGATCCATATTTTTCGTAGCATTCGGAGTCACCTAGTGCAG”: 10100 fluorescence intensity (a.u.). Regarding “GTGAGGGCTAAACAGTGGGGTATATTATTAAAATTGCTCTCGGAGTCACCTAGTGCAG”, the binding signal is 9830 fluorescence intensity (a.u.).

Regarding “TCTCTGTTCATATGCATGCATATGTCCATTCTGAATTCCTCGGAGTCACCTAGTGCAG”, the binding signal was 8850 fluorescence intensity (a.u.).

As to “AGGGATACAATTTAGATTCAGTTGTCAGTTGAGGGAGTCACGGAGTCACCTAGTGCAG”, the binding signal is 9020 fluorescence intensity (a.u.). Next, “AAGTCAGTTTCGATATAAGACATGGTATGTGGTGGGTCCTCGGAGTCACCTAGTGCAG”: 8070 fluorescence intensity (a.u.).

As for “TGGGTTGGTGTAGATAATAATGTAACTGGTTCAGTTGTAGCGGAGTCACCTAGTGCAG”, the binding signal is 8830 fluorescence intensity (a.u.). As for “ATAGGACCAGAAAGCCTACACACTACTACCACGTCCATCCCGGAGTCACCTAGTGCAG”, the figure is 8480 fluorescence intensity (a.u.). As for “AAATCCACCACTCAAACCACCCGCAAATTCACCTTGAGTCCGGAGTCACCTAGTGCAG”, the binding signal is 8020 fluorescence intensity (a.u.). Take “GTCGCCGTCCCATCGGCCTCCGCTTGCCGCCCGCTCCGCGCGGAGTCACCTAGTGCAG”: the binding signal was 8290 fluorescence intensity (a.u.).

For the sequence “CCCTTGGGTTGGGTTGTGTTGCTCCCTCTGCTGCATTAATCGGAGTCACCTAGTGCAG”, the binding signal was 18100 fluorescence intensity (a.u.). As for “GTCGTTTTTAACCTCGCTGTAGCAAACAGTTTGGAGTTTTCGGAGTCACCTAGTGCAG”, the figure is 8770 fluorescence intensity (a.u.); as for “GTCTACTTCCTTTGTAATCTGTTCTCATCATCATCAATCCCGGAGTCACCTAGTGCAG”, 9000 fluorescence intensity (a.u.). As for “GTCTTGACTCATCCATGTACGTATGCGTATGCCACTACGACGGAGTCACCTAGTGCAG”, the figure is 8180 fluorescence intensity (a.u.); as for “TCTTACTGCTGGTGAAGCATACTCCTACTTGTAACATCATCGGAGTCACCTAGTGCAG”, 8670 fluorescence intensity (a.u.). With “ACACATACGTATGCTACTACTTCGCTTAAGCTATCTGATTCGGAGTCACCTAGTGCAG”, the binding signal was 8350 fluorescence intensity (a.u.). Next, “TCTTGACCCGCCGCTCCGACGATCTCGCGCGTACGTACGTCGGAGTCACCTAGTGCAG”: 8330 fluorescence intensity (a.u.); “CTCCCTGAGTCTAGTCCCGATCCCCACCGTTGACCGAAGTCGGAGTCACCTAGTGCAG”: 19900 fluorescence intensity (a.u.); “CTCAACTGCTATGTCACCAATGCCTACATCCGCATTGACACGGAGTCACCTAGTGCAG”: 9690 fluorescence intensity (a.u.). As for “TTCAGTAGCGTCGTTCGCTCCCTGGCTTCTCCATTTCTTCCGGAGTCACCTAGTGCAG”, the figure is 8590 fluorescence intensity (a.u.). Next, “TCCTTTTGTTTTCCTATCTAATTACTTCTTATATCTATTCCGGAGTCACCTAGTGCAG”: 9510 fluorescence intensity (a.u.); “GATTGACCCGCCATACAAACTACCACTCGTTGCCAGTCACCGGAGTCACCTAGTGCAG”: 9360 fluorescence intensity (a.u.). “AGTACTGCATTACTATATAACCTTCGAATTCTCATTAACTCGGAGTCACCTAGTGCAG”: the binding signal is 8380 fluorescence intensity (a.u.). Next, “ATTTCTCTGGAAGGATTGTGCTTAGTTTCTACTTTTTTTACGGAGTCACCTAGTGCAG”: 8320 fluorescence intensity (a.u.); “CTCTCATCACCTTGTGTTTCCTTCCCTTCTCACATCGAGACGGAGTCACCTAGTGCAG”: 8320 fluorescence intensity (a.u.); “GCTTTCCTTGTTTGTTCGGCCCGGATGCATTACCACTTCTCGGAGTCACCTAGTGCAG”: 10800 fluorescence intensity (a.u.). Consider “ATTGATGAAGCATATATTGTGTCGCTGTCATTTGGTTGTTCGGAGTCACCTAGTGCAG”, for which the binding signal was 9080 fluorescence intensity (a.u.). As for “GGAGCTTTCAACAGGACCATTTGGGATCATTTCATATAGTCGGAGTCACCTAGTGCAG”, the figure is 9280 fluorescence intensity (a.u.); as for “GATCCGTCGAACAGTGAATTGCACTCTGATCTATCTTTTACGGAGTCACCTAGTGCAG”, 10400 fluorescence intensity (a.u.). Consider “ATATATATATATATATATATATACACTATATACTATACCGCGGAGTCACCTAGTGCAG”, for which the binding signal is 13300 fluorescence intensity (a.u.). For the sequence “GGTGCATCTGTGCGGTGGAGGGGCTCGGCTGGGCGGCGGCCGGAGTCACCTAGTGCAG”, the binding signal is 11600 fluorescence intensity (a.u.).

As to “GAACACTTTCCTTCCCGCGCCTTTCAATTCATCCGCGCTCCGGAGTCACCTAGTGCAG”, the binding signal is 11700 fluorescence intensity (a.u.).

For “TGCTCGCCGCCGCCGCCGCCGCCGCACGCCTTCGAAGATGCGGAGTCACCTAGTGCAG”, the binding signal was 8460 fluorescence intensity (a.u.). As for “AGCATCCGCCCCTCGTTACGCACATTTTTTTATTCGAATTCGGAGTCACCTAGTGCAG”, the figure is 9400 fluorescence intensity (a.u.). As for “ATATCTCATACTATCTCTCTTCCGTCGTTCCGTGTTGGCCCGGAGTCACCTAGTGCAG”, the figure is 10900 fluorescence intensity (a.u.); as for “CATTTGTTAAGATTTCTGGCCTGTATTTTCTTGGGTTGGACGGAGTCACCTAGTGCAG”, 10400 fluorescence intensity (a.u.); as for “AATGTTCTTGAGGGCAAAGGGATGGACGCGGGTGTTCTACCGGAGTCACCTAGTGCAG”, 8050 fluorescence intensity (a.u.).

Consider “GGATGACATGTGGGTCCCACTTTTTGTGTGTGTGTGTGAACGGAGTCACCTAGTGCAG”, for which the binding signal was 10600 fluorescence intensity (a.u.).

With “CATCTGTCTCTGGATCTCTGCATATCTCCTCTTCTGTGATCGGAGTCACCTAGTGCAG”, the binding signal is 17200 fluorescence intensity (a.u.). As for “GGATAGATTGGAGTGGGTTGGGAAGGCTAATGCCCTTAGCCGGAGTCACCTAGTGCAG”, the figure is 8640 fluorescence intensity (a.u.); as for “AATTGACTCTTTTGCCCTTCGTTCTTATCTCCTTTGCGCTCGGAGTCACCTAGTGCAG”, 9720 fluorescence intensity (a.u.). As for “CCAGCAATACCCTACTCTCTCCGTCCCACTCACTAAGACACGGAGTCACCTAGTGCAG”, the figure is 9270 fluorescence intensity (a.u.). As to “TTGGCCATGTTAATGTTTTACTGATCATCAATTTGGTTACCGGAGTCACCTAGTGCAG”, the binding signal is 8980 fluorescence intensity (a.u.). With “TGATGCTATGAATTGAATTAGTGATTTGACTGTTCCTTTTCGGAGTCACCTAGTGCAG”, the binding signal was 8100 fluorescence intensity (a.u.). As for “ACATCAAAATTTTCTTACACACAAACTTCTGACTTTTTTACGGAGTCACCTAGTGCAG”, the figure is 9430 fluorescence intensity (a.u.). In the case of “CCCTCTGACTCTTTGCGCCAAGTCAATCTCCCCGTCTGTCCGGAGTCACCTAGTGCAG”, the binding signal is 11700 fluorescence intensity (a.u.). Next, “CGCCTTATCCTCCCGCCTTTTCACGTCCCGCCACGCCGACCGGAGTCACCTAGTGCAG”: 8900 fluorescence intensity (a.u.); “CCATTAAAGCCAAGCCACTGTCCTTGTCCATCTTTGTCCACGGAGTCACCTAGTGCAG”: 8190 fluorescence intensity (a.u.).

The values above are taken from paper PMC7819943, “Rice protein-binding microarrays: a tool to detect cis-acting elements near promoter regions in rice”.
